Assay in all cases: co-IP; endogenous proteins from HUVEC lysates; supernatant incubated overnight at 4 °C with SIRT1 or NOX4 antibody, Dynabeads Protein G, Western blotting; cells treated with echinacoside or resveratrol, control siRNA or SIRT1 siRNA
Experiment [1] deals with Sirtuin1 (SIRT1) (human (endogenous in HUVECs)) (UniProt Q96EB6).
The target in experiment [2] is T1, NOX4 (NADPH oxidase 4) (human (endogenous in HUVECs)) (UniProt Q9NPH5).
T1 sequence: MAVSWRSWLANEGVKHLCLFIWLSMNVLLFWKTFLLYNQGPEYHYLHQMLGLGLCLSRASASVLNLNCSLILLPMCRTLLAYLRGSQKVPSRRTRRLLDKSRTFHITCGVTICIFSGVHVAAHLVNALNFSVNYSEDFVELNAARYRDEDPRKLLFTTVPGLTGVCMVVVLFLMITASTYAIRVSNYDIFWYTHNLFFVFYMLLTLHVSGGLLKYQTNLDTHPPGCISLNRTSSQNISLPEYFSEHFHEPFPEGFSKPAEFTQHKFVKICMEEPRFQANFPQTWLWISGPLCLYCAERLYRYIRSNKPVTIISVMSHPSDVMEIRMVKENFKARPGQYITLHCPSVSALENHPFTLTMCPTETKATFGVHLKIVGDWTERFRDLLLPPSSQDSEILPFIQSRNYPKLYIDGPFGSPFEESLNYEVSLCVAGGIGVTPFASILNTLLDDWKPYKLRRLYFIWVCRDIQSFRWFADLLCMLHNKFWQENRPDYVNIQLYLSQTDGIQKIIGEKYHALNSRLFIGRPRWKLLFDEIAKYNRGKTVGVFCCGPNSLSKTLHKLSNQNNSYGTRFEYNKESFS

The chains behind the UniProt entries cited, without tags or fusion partners.
UniProt Q96EB6: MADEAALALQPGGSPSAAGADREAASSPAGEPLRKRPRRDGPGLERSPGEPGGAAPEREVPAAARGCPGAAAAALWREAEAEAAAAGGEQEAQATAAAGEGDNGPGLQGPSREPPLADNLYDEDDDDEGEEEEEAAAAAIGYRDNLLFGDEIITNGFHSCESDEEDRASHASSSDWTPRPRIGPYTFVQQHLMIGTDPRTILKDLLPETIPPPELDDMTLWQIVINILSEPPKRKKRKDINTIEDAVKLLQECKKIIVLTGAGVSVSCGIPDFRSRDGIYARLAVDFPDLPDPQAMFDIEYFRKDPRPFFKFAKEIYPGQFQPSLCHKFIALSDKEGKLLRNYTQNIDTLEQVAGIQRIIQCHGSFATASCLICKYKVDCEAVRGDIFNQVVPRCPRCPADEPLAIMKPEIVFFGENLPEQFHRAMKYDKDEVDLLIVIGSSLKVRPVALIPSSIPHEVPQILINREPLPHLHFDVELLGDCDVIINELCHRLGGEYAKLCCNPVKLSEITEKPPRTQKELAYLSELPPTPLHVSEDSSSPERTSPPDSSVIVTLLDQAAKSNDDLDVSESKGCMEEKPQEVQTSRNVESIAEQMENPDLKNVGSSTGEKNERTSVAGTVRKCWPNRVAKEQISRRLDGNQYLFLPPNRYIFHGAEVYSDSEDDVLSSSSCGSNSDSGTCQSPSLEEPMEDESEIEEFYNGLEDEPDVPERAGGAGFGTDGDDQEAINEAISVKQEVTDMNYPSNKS
UniProt Q04206: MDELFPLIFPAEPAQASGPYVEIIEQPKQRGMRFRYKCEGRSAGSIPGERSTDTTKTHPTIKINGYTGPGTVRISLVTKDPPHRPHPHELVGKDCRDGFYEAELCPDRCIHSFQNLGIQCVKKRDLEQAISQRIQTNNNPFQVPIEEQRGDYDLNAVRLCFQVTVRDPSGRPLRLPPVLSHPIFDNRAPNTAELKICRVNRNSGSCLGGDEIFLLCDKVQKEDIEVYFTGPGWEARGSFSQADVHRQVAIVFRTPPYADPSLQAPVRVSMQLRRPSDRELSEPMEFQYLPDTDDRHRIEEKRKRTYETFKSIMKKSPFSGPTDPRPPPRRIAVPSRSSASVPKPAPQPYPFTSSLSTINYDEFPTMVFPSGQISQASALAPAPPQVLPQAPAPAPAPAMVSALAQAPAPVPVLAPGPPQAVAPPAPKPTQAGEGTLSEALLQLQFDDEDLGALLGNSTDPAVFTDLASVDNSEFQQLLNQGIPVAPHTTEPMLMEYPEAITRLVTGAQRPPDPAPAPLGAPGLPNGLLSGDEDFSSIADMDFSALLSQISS

Experiment [3] concerns the target Sirtuin1 (SIRT1) (human (endogenous in HUVECs)) (UniProt Q96EB6). This is another data set of the same source.

Read-outs that look alike come from different tables or passages of the source. Results are given in words; binding and its absence hold for the method and conditions named. Binding seen in cells or lysates may run through a third protein. Some entries that bind do so weakly or less than the wild type.

For p65 (from UniProt Q04206 1-551), the binding entry in experiment [1] is “binds”.

B1: p22 phox (protein, UniProt P13498 1-195)
chain: MGQIEWAMWANEQALASGLILITGGIVATAGRFTQWYFGAYSIVAGVFVCLLEYPRGKRKKGSTMERWGQKYMTAVVKLFGPFTRNYYVRAVLHLLLSVPAGFLLATILGTACLAIASGIYLLAAVRGEQWTPIEPKPRERPQIGGTIKQPPSNPPPRPPAEARKKPSEEEAAVAAGGPPGGPQVNPIPVTDEVV
Regarding B1, the binding result in experiment [2] and in experiment [3] was “binds” throughout.

(Values after paper PMC10669561.)
